Assay results taken from patent US20180362893A1, “COMPOSITIONS COMPRISING AN ULTRAVIOLET INDICATOR” (Chemia Corporation, priority 2015, published 2018).

Assay: Fluorescing fragrances: UV indication and boosting of UV indicator fluorescence
Type: physicochemical
Conditions: for UV Booster: fragrance boosts fluorescence of UV indicators (s-5 white grains); for UV Indicator: fragrance ingredient itself provides UV indication

Row | Structure (SMILES) | UV Booster | UV Indicator
1 | COC(=O)c1c(C)cc(O)c(C)c1O [Veramoss] | Yes | Yes
2 | CC1(C)CCC[C@]2(C)[C@H]3CCO[C@]3(C)CC[C@@H]12 [Ambrox] | Yes | Yes
3 | O=c1ccc2ccccc2o1 [Coumarin] | Yes | Yes
4 | O=C(c1ccccc1)c1ccccc1 [Benzophenone] | Yes | Yes
5 | Cc1occc(=O)c1O [Veltol (Maltol), Maltol] | Yes | Yes
